The test in a line: qHTS Assay for Lipid Storage Modulators in Drosophila S3 Cells.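 On cell number change: cells counted by Cell Tracker Red CMTPX staining in the red channel.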 The note with it: BODIPY lipid droplet fluorescence, 18-24 h; for cell number change: measured here: cell count max response, cells fed with added oleic acid. The procedure, abridged: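 Laser-scanning cytometry quantifies lipid droplet accumulation (500–530 nm total intensity; droplet/cell object ratio) in oleic acid-fed (400 uM added) Drosophila S3 cells treated with a concentration series. 20 uM Triacsin C defined 100% inhibition.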

[1] abbreviates: measured here: lipid fluorescence (Fed channel) AC50, cells fed with added oleic acid.
The mark [2] stands for this setting: measured here: cell number channel AC50, cells fed with added oleic acid.

Usually AC50 stands for the midpoint of the concentration-response curve, whichever way the signal moves. A lower AC50 goes with activity at low concentration.

Each structure is given as a SMILES string. The list shows a part of the results. These are further read-outs of the screen, such as a control signal, another cell line or another target. No call is given for them. Most of these compounds were active or inconclusive in the main read-out, so they are no random draw. Potencies come from curve fits of mixed quality, noted in brackets.

Turning to `COc1ccc(OC)c(S(=O)(=O)NCC(=O)NC2CCCc3ccccc32)c1` (stereo not given), the cell number change is -0.32%. Under setting [1], the AC50 was 14.6 µM [rising, single point].

Take `O=C(NC1CCCCCC1)c1cccnc1Sc1ccc(Cl)cc1`: the cell number change turned out to be 10.1%. Further, the AC50 under setting [2] is 6.51 µM [rising, partial curve].

For the molecule `O=C(Cc1c(F)cccc1Cl)NCCc1c[nH]c2ccccc12`, the cell number change was -1.32%. Moreover, under setting [1], the AC50 was 5.62 µM [falling, single point].

`CCC(C)NC(=O)CSc1nc2n[nH]c(C)c2c(=N)n1-c1ccc(OC)cc1` (stereo not given): the cell number change was -13.1%.

Consider `C/C(=N\NC(=O)c1ccc(Cn2cc([N+](=O)[O-])cn2)o1)c1cccc(NC(=O)c2cccnc2)c1`, for which the cell number change was -0.689%. The AC50 under setting [1] is 6.51 µM [rising, single point].

For `Cc1cc(Nc2ccc(C(=O)O)cc2)n2nc(C)nc2n1`, the cell number change was -27.8%. The concentration at half-maximal activity (AC50) under setting [2] is 1.03 µM [falling, full curve, poor fit]. Besides, under setting [1], the AC50 is 3.66 µM [falling, full curve].

For the molecule `COCCn1c(SCC(=O)Nc2ccccc2OC)nnc1-c1ccco1`, the cell number change was 6.41%. Besides, the AC50 under setting [1] was 6.51 µM [rising, partial curve, poor fit].

As for `CNc1nccc(-c2ccc(F)cc2)c1C#N`, the cell number change was determined as 23.3%.

On to `CCOC(=O)[C@H]1[C@H]2COc3ccc(C)cc3[C@@H]2N2C(=O)c3cc(Cl)ccc3NC(=O)[C@@]12C`, for which the cell number change was -6.99%. Moreover, the AC50 under setting [1] was 18.4 µM [falling, single point].

With `COc1ccc(CC(=O)NCCC2=CCCCC2)cc1`, the cell number change worked out at 6.89%. Moreover, the AC50 under setting [2] was 6.51 µM [rising, single point].

On to `O=C1C2CCCN2C(c2ccc(F)cc2)N1c1nccs1` (stereo not given), for which the cell number change is -13.7%. Further, the AC50 under setting [1] is 0.231 µM [falling, full curve].

As to `Cc1ccc(C)c(OCCCCn2ccnc2)c1`, the cell number change turned out to be 111%. Besides, the AC50 under setting [2] was 1.46 µM [rising, full curve]. In addition, the AC50 under setting [1] is 2.06 µM [rising, full curve].

With `O=C(COc1ccc(Cl)cc1)NNC(=O)c1ccccc1C(=O)O`, the cell number change stood at 22.3%. In addition, under setting [1], the AC50 is 6.51 µM [rising, partial curve, poor fit].

With `CC(=O)Nc1ccc(S(=O)(=O)N2CCNC(=O)CC2)cc1`, the cell number change turned out to be 18.2%.

For `Cc1cc(C)n(CCOc2ccc(Br)cc2)n1`, the cell number change was -13.6%. The AC50 under setting [1] is 8.2 µM [rising, partial curve].

As for `CCN(CC)S(=O)(=O)c1cccc(-c2nnc(SCC(=O)NC3CCCCCC3)n2N)c1`, the AC50 under setting [2] was 6.51 µM [falling, single point] and the AC50 under setting [1] was 0.651 µM [falling, full curve, poor fit].

Regarding `CCC(C)N1C(=O)S/C(=C/c2ccc(Sc3nc4ccccc4[nH]3)o2)C1=O` (stereo not given), the cell number change is -12.4%. Also, the concentration at half-maximal activity (AC50) under setting [2] was 3.26 µM [rising, single point]. Besides, under setting [1], the AC50 was 6.51 µM [rising, single point].

Turning to `Cc1ccc(N(CC(=O)Nc2ccc(-c3nc4ccc(C)cc4s3)cc2)S(C)(=O)=O)cc1`, the cell number change is -27.4%. Moreover, under setting [1], the AC50 was 13 µM [falling, partial curve].

For `CCOC(=O)Cc1csc(NC(=O)c2c(-c3c(Cl)cccc3Cl)noc2C)n1`, the cell number change was -8.51%. The concentration at half-maximal activity (AC50) under setting [1] was 2.31 µM [falling, partial curve, poor fit].

Regarding `CCN(CC)S(=O)(=O)c1ccc(N2CCN(c3ccccc3OC)CC2)c(N)c1`, the cell number change was -6.72%.

Take `O=C(Cn1c2ccccc2c2nc3n(c(=O)c21)CCS3)Nc1ccccc1`: the cell number change was 136%. The concentration at half-maximal activity (AC50) under setting [2] is 29.1 µM [rising, single point]. Also, under setting [1], the AC50 is 0.13 µM [falling, full curve, poor fit].

As to `O=C(Nc1ccc(-n2ccc(C(F)(F)F)n2)cc1)Nc1cccc(Cl)c1`, the cell number change is -17.2%. In addition, the AC50 under setting [1] is 0.651 µM [falling, single point].

As for `O=C(Nc1ccc(S(=O)(=O)N2CCc3ccccc32)cc1)c1ccc2c(c1)OCO2`, the cell number change is -11.5%. Also, under setting [2], the concentration at half-maximal activity (AC50) was 5.17 µM [rising, single point]. The half-maximal activity concentration (AC50) under setting [1] was 1.3 µM [rising, full curve].

`O=S(=O)(c1ccc(Cl)cc1)N1CCC(c2nc3ccccc3[nH]2)CC1`: the cell number change is 60.3%. The half-maximal activity concentration (AC50) under setting [2] was 29.1 µM [rising, single point].

For the molecule `CCc1ccc(NC(=O)NC2CCCCCCC2)cc1`, the cell number change is -5.78%.

In the case of `COc1ccccc1NC1CCCCC1NS(=O)(=O)c1ccc(C)cc1` (stereo not given), the cell number change is -14.4%. The AC50 under setting [1] is 0.184 µM [falling, partial curve].

`O=c1oc2ccccc2n1CSC1=NCCS1`: the cell number change is -27.8%.

As for `Cc1ccc(OCCSc2nc(NC(C)C)nc(NC(C)C)n2)cc1`, the cell number change was 13.6%. In addition, the AC50 under setting [1] is 2.59 µM [rising, full curve].

For the molecule `NC(=O)C(c1ccc(Cl)cc1)c1ccc(Sc2ccccc2)nn1` (stereo not given), the cell number change came to 135%. In addition, under setting [2], the AC50 was 29.1 µM [rising, single point].

In the case of `CC1(C(=O)O)CCC(C(=O)N2CCOCC2)C1(C)C` (stereo not given), the cell number change was -7.22%.

As to `Cc1c(NC(=S)NC(=O)CCc2ccccc2)c(=O)n(-c2ccccc2)n1C`, the cell number change stood at 6.82%. For the same molecule, the AC50 under setting [1] is 0.58 µM [falling, single point].

For the molecule `COc1ccc(OC)c(S(=O)(=O)NC2CC(=O)N(c3ccc(C)c(C)c3)C2)c1` (stereo not given), the cell number change came out at 63.2%. Also, under setting [2], the AC50 was 11.6 µM [rising, partial curve, poor fit].

With `COc1cccc(NS(=O)(=O)c2ccc(NC(C)=O)cc2)c1`, the AC50 under setting [2] was 2.59 µM [rising, partial curve].

With `Cn1c(/N=C/c2ccccc2[N+](=O)[O-])nc2ccccc21`, the cell number change came to 6.73%. For the same molecule, under setting [1], the AC50 was 0.116 µM [rising, full curve, poor fit].

In the case of `CC(=O)NC1CSCC1OC(C)=O` (stereo not given), the cell number change was -0.325%.

As to `COc1ccc(CNC(=O)/C(C#N)=C/c2cccc(OC)c2OC)cc1`, the cell number change was -34%. Moreover, the AC50 under setting [2] was 16.4 µM [falling, single point]. For the same molecule, the AC50 under setting [1] is 18.4 µM [falling, single point].

In the case of `O=C(O)CCCC(=O)Nc1cccc([N+](=O)[O-])c1`, the cell number change is -123%. Besides, the half-maximal activity concentration (AC50) under setting [2] is 18.4 µM [falling, single point]. For the same molecule, the AC50 under setting [1] is 11.6 µM [falling, partial curve].

`CC(CC(=O)N1CCc2ccccc21)c1ccccc1` (stereo not given): the AC50 by setting is: under setting [2], 0.82 µM [falling, full curve, poor fit]; under setting [1], 1.3 µM [falling, full curve].

As to `CC(C)N(C=O)C1(C(=O)NC2CCCCC2)CCCCC1`, the cell number change was -68.5%. Moreover, under setting [2], the AC50 is 29.1 µM [falling, single point].

On to `Cn1ncc(Br)c1C(=O)N1CCOCC1`, for which the cell number change is 43.7%. Further, under setting [2], the AC50 was 25.9 µM [rising, single point]. For the same molecule, the AC50 under setting [1] was 29.1 µM [rising, single point].

Take `COc1ccc(-c2cc(C)no2)cc1S(=O)(=O)N1CCOc2ccccc21`: the cell number change was 2.69%.

With `CN(C(=O)c1cccc(NC(=O)c2ccccc2)c1)C1CCCCC1`, the cell number change is 11.4%. Also, the AC50 under setting [1] is 29.1 µM [falling, single point].

On to `CCCn1c(NCc2cc(C)ccc2O)nc2ccccc21`, for which the cell number change turned out to be 5.73%.

`Cc1cccc(C(=O)NCCCNC(=O)c2ccc(C)nc2)c1`: the cell number change was determined as 22.3%. In addition, the AC50 under setting [1] was 6.51 µM [rising, single point].

Consider `N#Cc1c(N)n(CCNC(=O)c2ccccc2)c2nc3ccccc3nc12`, for which the AC50 under setting [1] is 2.06 µM [rising, partial curve].

Take `O=C1Nc2ccc(S(=O)(=O)N3CCOCC3)c3cccc1c23`: the cell number change turned out to be 33.7%. Under setting [2], the AC50 was 32.6 µM [rising, single point]. Besides, the AC50 under setting [1] was 2.91 µM [rising, single point].

On to `O=C(Cn1cc(C(F)(F)F)cc(Cl)c1=O)Nc1cc(Cl)cc(Cl)c1`, for which the cell number change was -22.1%. For the same molecule, under setting [2], the AC50 is 2.06 µM [falling, single point].

With `CN(/N=C/c1cc([N+](=O)[O-])ccc1O)c1ccccc1`, the cell number change was -10.4%. For the same molecule, the AC50 under setting [1] is 0.411 µM [falling, full curve].

In the case of `O=C(O)CN1CCN(Cc2ccccc2Cl)C1=O`, the concentration at half-maximal activity (AC50) was 0.411 µM [falling, single point] under setting [2] and 7.31 µM [falling, partial curve, poor fit] under setting [1].

For the molecule `COc1cccc(Cn2cc(/C=N/NC(=O)c3cc(O)cc(O)c3)c3ccccc32)c1`, the cell number change was -17.3%. In addition, the AC50 under setting [1] was 0.651 µM [rising, full curve, poor fit].

Consider `CCCCC(=O)OCC(=O)c1[nH]c(C)c(C(=O)OCC)c1C`, for which the cell number change stood at 35.9%. In addition, under setting [2], the AC50 was 8.2 µM [rising, partial curve, poor fit].

Turning to `CC(=O)Nc1nnc(CCS(=O)(=O)c2ccc(C)c(C)c2)s1`, the cell number change is 17.3%. Further, the AC50 under setting [1] was 1.64 µM [falling, partial curve].

Turning to `CN(C)C(=O)N1CCC(C(=O)N2CCCC(C(=O)c3cccc4ccccc34)C2)CC1` (stereo not given), the cell number change was -13.8%.

For `CC(C)c1ccc(OCC(=O)NC(Cc2c[nH]c3ccccc23)C(=O)O)cc1` (stereo not given), the cell number change was -7.95%. Further, the half-maximal activity concentration (AC50) under setting [1] was 0.058 µM [rising, full curve, poor fit].

`O=C1CC[C@@H](CN(Cc2ccccc2)Cc2cn[nH]c2-c2cc3ccccc3o2)N1`: the cell number change is 4.13%. Also, the concentration at half-maximal activity (AC50) under setting [1] was 0.0058 µM [falling, full curve, poor fit].

In the case of `COC(=O)C1CCN(C(=O)CSc2nc3nc(C)cc(C)n3n2)CC1`, the cell number change came out at 0.643%. Besides, the concentration at half-maximal activity (AC50) under setting [2] was 6.51 µM [falling, single point]. Also, under setting [1], the half-maximal activity concentration (AC50) is 3.26 µM [falling, single point].

Take `COC(=O)c1cc(S(=O)(=O)NCc2cccc(Br)c2)c[nH]1`: the AC50 under setting [1] was 4.61 µM [rising, full curve].

As for `CCCNC(=O)c1ccc(N2CCC3(CC2)CC(c2cccc(Br)c2)=NO3)c(NC(=O)c2ccc(Br)cc2)c1`, the cell number change was 20.3%. For the same molecule, the AC50 under setting [1] was 29.1 µM [rising, single point].

As for `Cc1ccc(C(=O)NCc2ccc3c(c2)OCO3)cc1`, the cell number change came to 8.47%. Further, the AC50 under setting [1] is 29.1 µM [rising, single point].

As to `COC(=O)c1sc(N)c(C(=O)OC)c1COC(=O)CNS(=O)(=O)c1cccc(C#N)c1`, the cell number change is -100%. Besides, the AC50 under setting [2] was 29.1 µM [falling, single point]. Further, the AC50 under setting [1] is 2.91 µM [rising, partial curve].

In the case of `O=C(NNC(=O)c1cccnc1)NC12CC3CC(CC(C3)C1)C2`, the cell number change is -32.4%. For the same molecule, the half-maximal activity concentration (AC50) under setting [2] is 4.11 µM [falling, full curve]. For the same molecule, under setting [1], the AC50 is 29.1 µM [falling, single point].

The values are drawn from PubChem BioAssay AID2685 (National Center for Advancing Translational Sciences (NCATS), 2010).
